# Measured values published in the supplement of paper PMC3682954.
# Where a name gives a salt, the structure may show the parent alone. ± gives the standard deviation of the averaged measurements. This is one part of the list. Repeats are few or missing, and single values can be far off.
# Test system: RAW 264.7
# Experiment: cell viability (MTT) relative to vehicle control; higher = more viable cells
# Conditions: stimulus: HMGB1 5 ug/ml, 18 h
# [1] = compound concentration: 1 ug/ml
Structure (SMILES),cell viability (compound concentration: 3 uM),cell viability [1]
O=c1[nH]c2ccccc2n1CCCN1CCN(C(c2ccccc2)c2ccccc2)CC1 [Oxatomide],103%,–
Nc1nc(Cl)nc2c1ncn2[C@@H]1O[C@H](CO)[C@@H](O)[C@H]1O [2-Chloroadenosine],97.7%,–
Nc1nc(Cl)nc2c1ncn2[C@@H]1O[C@H](CO)[C@@H](O)[C@H]1O,94.7%,–
Cc1c(-c2cnccn2)ssc1=S [Oltipraz],113%,–
NO [Hydroxylamine hydrochloride],102%,–
C(=C\c1ccccc1)/CN1CCN(C(c2ccccc2)c2ccccc2)CC1,94.3%,–
CN1CCN(C(c2ccccc2)c2ccccc2)CC1,97.7%,–
CN1CCN(C(c2ccccc2)c2ccccc2)CC1 [Cyclizine hydrochloride],97.8%,–
C[C@]12CC[C@@H]3c4ccc(OC(=O)c5ccccc5)cc4CC[C@H]3[C@@H]1CC[C@@H]2O,112%,–
C[C@]12CC[C@@H]3c4ccc(OC(=O)c5ccccc5)cc4CC[C@H]3[C@@H]1CC[C@@H]2O [estradiol benzoate],–,104%
C[N+](C)(C)CC(=O)O [Betaine hydrochloride],113%,–
C[N+](C)(C)CC(=O)O,107%,–
O=C(O)c1ccccc1C(=O)Nc1ccc(S(=O)(=O)Nc2nccs2)cc1,98.5%,–
O=C(O)c1ccccc1C(=O)Nc1ccc(S(=O)(=O)Nc2nccs2)cc1 [Phthalylsulfathiazole],97.9%,–
OCCN(CCO)c1nc(N2CCCCC2)c2nc(N(CCO)CCO)nc(N3CCCCC3)c2n1,100%,–
OCCN(CCO)c1nc(N2CCCCC2)c2nc(N(CCO)CCO)nc(N3CCCCC3)c2n1 [Dipyridamole],99.5 ± 5.2%,–
CC[C@H](CO)Nc1nc(NCc2ccccc2)c2ncn(C(C)C)c2n1 [Roscovitine],107%,–
CC1CC(OC(=O)c2ccccc2O)CC(C)(C)C1 (stereo not given) [Homosalate],100%,–
CC1CC(OC(=O)c2ccccc2O)CC(C)(C)C1 (stereo not given),105%,–
C[C@@H](CN1CCC(Cc2ccccc2)CC1)[C@@H](O)c1ccc(O)cc1 [Ro 25-6981 hydrochloride],125%,–
COC(=O)C1=C(C#N)NC(C)=C(C(=O)OC(C)C)C1c1cccc([N+](=O)[O-])c1 (stereo not given) [Nilvadipine],106%,–
N#Cc1cc2nc(O)c(O)nc2cc1[N+](=O)[O-] [CNQX disodium],106%,–
COC(=O)[C@H](NC(=O)c1cc(-c2ccccc2)nc2ccccc12)c1ccccc1,108%,–
NC[C@@H]1O[C@@H](O[C@H]2[C@H](O)[C@@H](O[C@H]3O[C@H](CO)[C@@H](O)[C@H](N)[C@H]3O)[C@H](N)C[C@@H]2N)[C@@H](O)[C@H](O)[C@H]1O [Kanamycin A sulfate],112%,–
NC[C@@H]1O[C@@H](O[C@H]2[C@H](O)[C@@H](O[C@H]3O[C@H](CO)[C@@H](O)[C@H](N)[C@H]3O)[C@H](N)C[C@@H]2N)[C@@H](O)[C@H](O)[C@H]1O,102%,–
N[C@@H](CS(=O)O)C(=O)O [L-Cysteinesulfinic Acid],107%,–
O=C(CCCN1CCN(c2ccccn2)CC1)c1ccc(F)cc1,106%,–
O=C(CCCN1CCN(c2ccccn2)CC1)c1ccc(F)cc1 [Azaperone],101 ± 7.9%,–

Structure (SMILES),cell viability (compound concentration: 3 uM),cell viability [1]
Cc1cc(NC(=O)Nc2ccc3c(ccn3C)c2)sn1,107%,–
O=C(Nc1ccncc1)c1cc([N+](=O)[O-])ccc1Cl,106%,–
C#C[C@]1(O)CC[C@H]2[C@@H]3CCC4=CCCC[C@@H]4[C@H]3CC[C@@]21C [Lynestrenol],104%,–
C[C@@H](O)[C@@H]1NC(=O)[C@H](CCCCN)NC(=O)[C@@H](Cc2c[nH]c3ccccc23)NC(=O)[C@H](Cc2ccccc2)NC(=O)[C@@H](NC(=O)[C@H](N)Cc2ccccc2)CSSC[C@@H](C(=O)N[C@H](CO)[C@@H](C)O)NC1=O [Octreotide],105%,–
C[C@H](CCC(=O)O)[C@H]1CC[C@H]2[C@@H]3[C@@H](O)C[C@@H]4C[C@H](O)CC[C@]4(C)[C@H]3CC[C@]12C [Urosiol],86.7%,–
C[C@H](CCC(=O)O)[C@H]1CC[C@H]2[C@@H]3[C@@H](O)C[C@@H]4C[C@H](O)CC[C@]4(C)[C@H]3CC[C@]12C,99%,–
Cc1ccc(=O)n(-c2ccccc2)c1 [Pirfenidone],100%,–
Nc1c2ccccc2nc2ccccc12,94.1%,–
Cc1cn([C@@H]2O[C@H](CO)[C@@H](O)[C@H]2O)c(=O)nc1N [5-Methylcytidine],–,96.9%
CN1CCC(=C2c3ccccc3Sc3ccccc32)CC1,113%,–
CN1CCC(=C2c3ccccc3Sc3ccccc32)CC1 [Pimethixene maleate],100%,–
CC(=O)/C=C1/C(=O)N(C)c2ccccc21 [Supercinnamaldehyde],91.6%,–
Cc1ccc2oc(-c3ccccc3)cc(=O)c2c1 [6-Methylflavone],–,104%
N[C@@H](Cc1cc(I)c(Oc2ccc(O)c(I)c2)c(I)c1)C(=O)O [Liothyronine],88.8%,–
"N[C@@H](Cc1cc(I)c(Oc2ccc(O)c(I)c2)c(I)c1)C(=O)O [3,3',5-Triiodo-L-thyronine]",–,93.8%
N[C@@H](Cc1cc(I)c(Oc2ccc(O)c(I)c2)c(I)c1)C(=O)O,101%,–
N[C@@H](Cc1cc(I)c(Oc2ccc(O)c(I)c2)c(I)c1)C(=O)O [LIOTHYRONINE (L- isomer) SODIUM],108%,–
CN1CCCN=C1/C=C/c1cccc(O)c1 [Oxantel pamoate],114%,–
CN1CCCN=C1/C=C/c1cccc(O)c1,98.7%,–
CC(N)CCCC(C)(C)O (stereo not given) [Heptaminol hydrochloride],94.6%,–
CC(N)CCCC(C)(C)O (stereo not given),108%,–
CC(C)(C)c1ccc(S(=O)(=O)/C=C/C#N)cc1,93.6%,–
"O=Nc1ccc2oc(=O)ccc2c1 [6-Nitroso-1,2-benzopyrone]",109%,–
"O=C(O)c1cc(=O)c2c(Cl)cc(Cl)cc2[nH]1 [5,7-Dichlorokynurenic acid]",96.7%,–
"O=c1cc(-c2ccccc2O)oc2ccc(O)cc12 [2',6-Dihydroxyflavone]",–,95.3%
Cc1cc(O)cc(C)c1Cl,111%,–
CC(=O)N(c1onc(C)c1C)S(=O)(=O)c1ccc(N)cc1,111%,–

# Fetched one by one from the list above:
Structure (SMILES),cell viability (compound concentration: 3 uM),cell viability [1]
CN1CCCN=C1/C=C/c1cccc(O)c1,98.7%,–
"O=C(O)c1cc(=O)c2c(Cl)cc(Cl)cc2[nH]1 [5,7-Dichlorokynurenic acid]",96.7%,–
